Data set [1] can be described thus: general procedure: Fmoc solid-phase peptide synthesis; Sieber amide resin, substitution 0.65 mmol/g; DIC/HOBt/DIPEA. To be noted: whole synthesis, UV 280 nm, side-chain lactam ring.
The nature of data set [2]: general procedure: Fmoc solid-phase peptide synthesis; Sieber amide resin; DIC/HOBt/DIPEA. To be noted: whole synthesis, overall, based on removal of the first Fmoc group, side-chain lactam ring.

Turning to [HYNIC-GABA-Nle]-CycMSHhept, in data set [1], the “final HPLC purity” value is recorded as greater than 98%. The substance also showed an isolated yield in data set [2] of 35%.

The record behind these values is PMC5149022 (Iranian Journal of Pharmaceutical Research : IJPR, 2016).
